According to US20190367843A1, “ANTIMICROBIAL SURFACE CLEANSERS AND BIOSTATIC COATINGS FOR REMOVABLE DENTAL PROSTHETIC APPLIANCES AND ORAL DEVICES” (CLEARSTREAM TECHNOLOGIES LLC, priority 2018, published 2019):

Experiment: Bromophenol blue test for SiQAC bonded to PMMA coupon surface
Conditions: Table 2 composition 1:50

## CCCCCCCCCCCCCCCCCC[N+](C)(C)CCC[Si](OC)(OC)OC.[Cl-] [SiQAC, 3-(trimethoxysilyl) propyldimethyloctadecyl ammonium chloride]
PMMA coupons after first soak and brushing
  bromophenol blue colour of coupon surface (onset of film formation): turned blue
PMMA coupons after tenth soak/brush cycle
  bromophenol blue colour of coupon surface (presence of SiQAC bonded to the surface): turned blue
